Experimental data: US10301323B2, “Histone deacetylase inhibitors” (BIOMARIN PHARMACEUTICAL INC., priority 2011, dated 2019)

System: C57BL/6J male mice
Test: Long term memory for object recognition
Format: in vivo
Conditions: 3, 10, 30 mg/kg subcutaneous; object recognition memory task
Experimental: C57BL/6J male mice were handled 1-2 min for 5 days and were habituated to the experimental apparatus 5 min a day for 4 consecutive days in the absence of objects. […] 24-h later mice were tested for memory retention (5 min) using the object recognition memory task (ORM), in which a familiar object was replaced with a novel one. All training and testing trials were videotaped and analyzed by individuals blind to the treatment condition and the genotype of subjects. A mouse was scored as exploring an object when its head was oriented toward the object within a distance of 1 cm or when the nose was touching the object. The relative exploration time was recorded and expressed by a discrimination index [DI=(tnovel−tfamiliar)/(tnovel+tfamiliar)×100].

Cc1ccc(C(=O)NCCCCCC(=O)Nc2ccccc2N)cc1 [RGFP 109]
dose dependence of the effect on long-term memory: Dose dependent effects
